These are yes or no findings as the source states them, for the method shown. In cells and extracts the contact can be indirect.

Chains of the proteins cited; added tags and fusions are not shown.
UniProt P01106: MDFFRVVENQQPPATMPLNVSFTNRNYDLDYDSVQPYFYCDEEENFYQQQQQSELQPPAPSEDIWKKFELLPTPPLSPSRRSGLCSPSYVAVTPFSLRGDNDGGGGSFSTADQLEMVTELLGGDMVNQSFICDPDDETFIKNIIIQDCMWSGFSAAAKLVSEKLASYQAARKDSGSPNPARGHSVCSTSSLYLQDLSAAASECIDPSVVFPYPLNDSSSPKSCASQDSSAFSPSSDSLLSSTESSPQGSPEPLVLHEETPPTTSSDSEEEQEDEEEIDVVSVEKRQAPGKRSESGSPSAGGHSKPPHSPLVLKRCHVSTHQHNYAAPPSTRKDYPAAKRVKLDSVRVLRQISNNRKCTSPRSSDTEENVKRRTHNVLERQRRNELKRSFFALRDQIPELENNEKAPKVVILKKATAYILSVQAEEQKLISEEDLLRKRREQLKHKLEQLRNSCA

The target of the experiment is T1, F-ATP synthase inhibitory factor 1, endogenous in HEK293T cells (human (endogenous in HEK293T)) (UniProt Q9UII2).
T1 sequence: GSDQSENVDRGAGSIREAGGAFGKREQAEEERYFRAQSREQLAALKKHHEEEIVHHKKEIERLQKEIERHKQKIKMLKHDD
In words: cross-linking; cross-linking by DTBP (cleavable by DTT) in isolated mitochondria from HEK293T cells; no data shown.

In the case of “c-Myc, endogenous in HEK293T cells (from UniProt P01106 1-454)”, the binding entry is reported as “no binding”.

The record behind these values is article PMC10352482.
